# Test results from PubChem BioAssay (NCATS).
# Inconclusive means that the source gave no clear call. Such entries were picked first, then a sample of the others. A call without a number means that no potency is given here. For part of these data: Potencies beside an inconclusive call are fits to weak or partial responses and may not hold up. Activity calls are given as the source filed them. Calls follow the shape of the dose curve; as a rule, active = well fitted curve in the direction sought with a large enough effect; inconclusive = small, poorly fitted or top-dose-only effect, or another doubt; inactive = no such curve, though single readings can be large; an effect the other way counts as inactive or inconclusive.
# How the values were obtained:
# [1] = Quantitative High-Throughput drug screen in 47 multiple myeloma cell lines against the NCATS MIPE library collection: MM1R_ATCC cell viability assay (AID 1918981); also: nearly all actives have a fitted effect of over 35% in size
# Method in brief: (§1)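 ATP-based luminescence (CellTiter-Glo, 5 min RT incubation) quantified surviving cells following two days' treatment with MIPE 4.0 agents at 37 °C, 5% CO2.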
# [2] = Quantitative High-Throughput drug screen in 47 multiple myeloma cell lines against the NCATS MIPE library collection: KMS28PE_JCRB cell viability assay (AID 1918983); also: nearly all actives have a fitted effect of over 35% in size
# Method in brief: as §1
# [3] = Quantitative High-Throughput drug screen in 47 multiple myeloma cell lines against the NCATS MIPE library collection: L363_DSMZ cell viability assay (AID 1918984); details: L363 myeloma viability, CellTiter-Glo ATP luminescence, 48 h; viability (% of control): at 45.8 µM (top of the series); also: nearly all actives have a fitted effect of over 40% in size
# Method in brief: as §1
# [4] = Quantitative High-Throughput drug screen in 47 multiple myeloma cell lines against the NCATS MIPE library collection: OCIMY7_PLB cell viability assay (AID 1918987); also: potency is read from the fitted curve at half-maximal effect; nearly all actives have a fitted effect of over 65% in size
# Method in brief: as §1
# [5] = Quantitative High-Throughput drug screen in 47 multiple myeloma cell lines against the NCATS MIPE library collection: OCIMY5_PLB cell viability assay (AID 1918988); also: potency is read from the fitted curve at half-maximal effect; nearly all actives have a fitted effect of over 65% in size
# Method in brief: as §1
# [6] = Quantitative High-Throughput drug screen in 47 multiple myeloma cell lines against the NCATS MIPE library collection: OPM1_PLB cell viability assay (AID 1918989); also: potency is read from the fitted curve at half-maximal effect; nearly all actives have a fitted effect of over 40% in size
# Method in brief: as §1
# [7] = Quantitative High-Throughput drug screen in 47 multiple myeloma cell lines against the NCATS MIPE library collection: SKMM1_PLB cell viability assay (AID 1919863); details: SKMM1 myeloma viability, CellTiter-Glo ATP, 48 h; viability: stronger effect = lower value; also: nearly all actives have a fitted effect of over 35% in size
# Method in brief: as §1
# [8] = Quantitative High-Throughput drug screen in 47 multiple myeloma cell lines against the NCATS MIPE library collection: U266_ATCC cell viability assay (AID 1919864); also: nearly all actives have a fitted effect of over 35% in size
# Method in brief: as §1
# [9] = Quantitative High-Throughput drug screen in 47 multiple myeloma cell lines against the NCATS MIPE library collection: UTMC2_PLB cell viability assay (AID 1919868); details: CellTiter-Glo ATP luminescence, 48 h; viability (% of DMSO control): at 45.8 µM (top of the series); also: potency is read from the fitted curve at half-maximal effect; nearly all actives have a fitted effect of over 55% in size
# Method in brief: as §1
# [10] = Quantitative High-Throughput drug screen in 47 multiple myeloma cell lines against the NCATS MIPE library collection: PCM6_Riken cell viability assay (AID 1919870); also: potency is read from the fitted curve at half-maximal effect; nearly all actives have a fitted effect of over 30% in size
# Method in brief: as §1
# [11] = Quantitative High-Throughput drug screen in 47 multiple myeloma cell lines against the NCATS MIPE library collection: RPMI8226_ATCC cell viability assay (AID 1919871); also: potency is read from the fitted curve at half-maximal effect; nearly all actives have a fitted effect of over 30% in size
# Method in brief: as §1
# [12] = Quantitative High-Throughput drug screen in 47 multiple myeloma cell lines against the NCATS MIPE library collection: KMS28BM_JCRB cell viability assay (AID 1919874); also: nearly all actives have a fitted effect of over 35% in size
# Method in brief: as §1
# [13] = test system: AA1029; test: qHTS profiling for inhibitors of Plasmodium falciparum proliferation (AID 504749); also: nearly all actives have a fitted effect of over 60% in size; also: potency is read from the fitted curve at half-maximal effect; details: P. falciparum in erythrocytes, SYBR Green DNA, 72 h; series mostly up to 28.7 µM
# Method in brief: (§2)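 In a 72 h erythrocytic culture (37 C, humidified, 5% CO2) at 2.5% hematocrit and 0.3% starting parasitemia, compounds were tested; SYBR Green I in detergent lysis buffer stained parasite DNA overnight.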
# [14] = test system: CP191; test: as above; details: P. falciparum in erythrocytes, SYBR Green DNA, 72 h; series mostly up to 28.7 µM
# Method in brief: as §2
# [15] = test system: CP194; test: as above; details: P. falciparum in erythrocytes, SYBR Green DNA, 72 h; series mostly up to 28.7 µM
# Method in brief: as §2
# [16] = test system: CP203; test: as above; details: P. falciparum in erythrocytes, SYBR Green DNA, 72 h; activity, negative = inhibition: at 28.7 µM (top of the series)
# Method in brief: as §2
# [17] = test system: CP247; test: as above; details: P. falciparum in erythrocytes, SYBR Green DNA, 72 h; series mostly up to 28.7 µM
# Method in brief: as §2
# [18] = test system: CP256; test: as above; details: P. falciparum in erythrocytes, SYBR Green DNA, 72 h; series mostly up to 28.7 µM
# Method in brief: as §2
# [19] = test system: CP268; test: as above; details: P. falciparum in erythrocytes, SYBR Green DNA, 72 h; series mostly up to 28.7 µM
# Method in brief: as §2
# [20] = test system: CP297; test: as above; details: P. falciparum in erythrocytes, SYBR Green DNA, 72 h; activity, negative = inhibition: at 28.7 µM (top of the series) unless noted
# Method in brief: as §2
# [21] = test system: DFO2036; test: as above; details: P. falciparum in erythrocytes, SYBR Green DNA, 72 h; series mostly up to 28.7 µM
# Method in brief: as §2
# [22] = test system: HB3; test: as above; details: P. falciparum in erythrocytes, SYBR Green DNA, 72 h; series mostly up to 28.7 µM
# Method in brief: as §2
# [23] = test system: TAB109; test: as above; details: P. falciparum in erythrocytes, SYBR Green DNA, 72 h; series mostly up to 28.7 µM
# Method in brief: as §2
# [24] = test system: HEK293; test: Cytotoxic Profiling of Annotated Libraries Using Quantitative High-Throughput Screening (AID 1296008); details: Five cell lines viability, CellTiter-Glo ATP luminescence, 48-72 h; max response: stronger effect = lower value; also: nearly all actives have a fitted effect of over 60% in size
# Method in brief: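 Cytotoxicity was measured as CellTiter-Glo ATP luminescence, read after 10 min at room temperature. Compound treatment of the cells lasted 48 or 72 hr at 37 degrees Celsius in a qHTS format.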
compound,measurement,setting,value
O=C(CS(=O)Cc1ccco1)NCC=CCOc1cc(CN2CCCCC2)ccn1 (centres undefined),Potency,[1],inactive
same,Potency,[2],inactive
same,Potency,[3],inactive
same,Potency,[4],inconclusive: 1 nM
same,Potency,[5],"inconclusive: 37200 nM [cytotoxic, single point]"
same,Potency,[6],"inconclusive: 20900 nM [cytotoxic, partial curve, poor fit]"
same,viability,[7],inactive: 134%
same,Potency,[8],inactive
same,Potency,[9],"inconclusive: 332 nM [cytotoxic, full curve, poor fit]"
same,Potency,[10],"inconclusive: 26400 nM [cytotoxic, single point]"
same,Potency,[11],"inconclusive: 83.3 nM [rising, full curve, poor fit]"
same,Potency,[12],inactive
same,Potency,[13],inactive
same,Potency,[14],"inconclusive: 11.2 nM [inhibitor, full curve, poor fit]"
same,Potency,[15],inactive
same,Potency,[16],inactive
same,Potency,[17],inactive
same,Potency,[18],"inconclusive: 355 nM [inhibitor, full curve, poor fit]"
same,Potency,[19],inactive
same,Potency,[20],inconclusive: 1.3 nM [activator]
same,Potency,[21],inactive
same,Potency,[22],inactive
same,Potency,[23],"inconclusive: 2240 nM [inhibitor, single point]"
same,max response,[24],inactive: -11.3%

# Two entries drawn at random from the list so far, as already listed:
compound,measurement,setting,value
O=C(CS(=O)Cc1ccco1)NCC=CCOc1cc(CN2CCCCC2)ccn1 (centres undefined),Potency,[15],inactive
same,Potency,[21],inactive
